Data as given in PubChem BioAssay AID652259 (Drosophila RNAi Screening Center, 2013)
The deposit covers about 22,000 reagents; below is an unselected part of those that have a named target and a result. Of all reagents, 233 (1.1%) were called active. 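Light values are raw, unnormalised plate reads; the ratio scores behind the reporter calls were not deposited.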 Names joined by + are all predicted targets of the reagent. Not given: the amount of reagent, the time to read-out, the dose of the treatment.

- Assay: 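Knock-downs that push a Wingless-driven reporter up or down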 (primary screen)
- Cells: Drosophila clone 8 imaginal disc epithelial cells
- Knock-down reagent: long dsRNA against Drosophila genes
- Challenge: pathway stimulated by co-transfected Wingless expression plasmid
- Measurement: 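Dual luciferase reads per well after Wingless plasmid stimulation: reporter firefly light and Renilla control light; activity is firefly divided by Renilla, a ratio not deposited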
- Scale: firefly reporter light: higher = more Wg reporter light, before normalisation; Renilla control light: higher = more transfected or surviving cells
- Active means: 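Strong candidates differ from their plate mean by at least two out of four per-plate statistical tests; weak candidates meet just one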
- Calls: active = candidate regulator (raises or lowers reporter); inactive = not a candidate

gene,DRSC id,"reporter change call, replicate 1","firefly reporter light, replicate 1","firefly reporter light, replicate 2","Renilla control light, replicate 1","Renilla control light, replicate 2",Outcome
Ranbp16,DRSC20160,,23840,,11241,,inactive
dpr18 (defective proboscis extension response 18),DRSC19606,,20993,,8580,,inactive
ATP8A (ATPase 8A),DRSC05421,,14822,,12164,,inactive
ATP8A (ATPase 8A),DRSC06643,,13408,,3553,,inactive
ATP8A (ATPase 8A),DRSC06644,,6050,,2356,,inactive
CG4596,DRSC15608,,13074,,3514,,inactive
CG3106,DRSC18279,,2627,8490,1066,3329,inactive
CG3589,DRSC04392,,20752,,7348,,inactive
mil (milkah),DRSC15696,,9859,,3493,,inactive
PolA2 (DNA polymerase alpha subunit 2),DRSC16641,,6441,,4418,,inactive
CG33255 (retired record) + CR42842 + hpRNA:CR32205 + 1 more,DRSC09617,,7008,,1733,,inactive
c12.2,DRSC18751,,12492,,6427,,inactive
lncRNA:CR32690 (long non-coding RNA:CR32690),DRSC22219,,7.20e5,7.45e5,3.03e5,2.83e5,inactive
CG7322,DRSC20036,,17037,,8817,,inactive
CG2321,DRSC15439,,1858,4998,945,2066,inactive
CG4741,DRSC04228,,3041,9664,901,2832,inactive
CG4741,DRSC04485,,2137,6858,738,2841,inactive
Ttc1 (Tetratricopeptide repeat domain 1),DRSC15016,,26967,,8400,,inactive
Ttc1 (Tetratricopeptide repeat domain 1),DRSC22469,,7.42e5,7.60e5,3.59e5,3.63e5,inactive
IntS4 (Integrator 4),DRSC17810,,2169,5269,1158,2818,inactive
scat (scattered),DRSC02722,,8112,,2480,,inactive
CAH8 (Carbonic anhydrase 8),DRSC15784,,33771,,6664,,inactive
bug (bunker gear),DRSC07137,,8554,,3315,,inactive
Kdm2 (Lysine demethylase 2),DRSC14286,,6357,,2343,,inactive
CG6700,DRSC02980,,11988,,3072,,inactive
Ugt36A1 + CG15418,DRSC00432,,3133,8794,1341,3944,inactive
CG42340,DRSC17458,,3120,,1347,,inactive
CG42340,DRSC17841,,22928,,11293,,inactive
CG42340,DRSC18305,,22282,,10266,,inactive
CG42340,DRSC21619,,6.03e5,6.22e5,3.72e5,2.42e5,inactive
CG12914,DRSC06229,,2250,6965,903,2770,inactive
CG2614,DRSC02711,,3208,,458,,inactive
ss (spineless),DRSC17069,,15306,,3849,,inactive
eIF3j (eukaryotic translation initiation factor 3 subunit j),DRSC06107,,8418,,2005,,inactive
metro (menage a trois),DRSC06341,,10873,,3017,,inactive
metro (menage a trois),DRSC06725,,6177,,2825,,inactive
BBS1 (Bardet-Biedl syndrome 1),DRSC10196,,2394,,832,,inactive
CG43103,DRSC05643,,23383,,16481,,inactive
CG6527,DRSC10659,,8032,,4466,,inactive
PlexA (Plexin A),DRSC17220,,2093,5636,800,2037,inactive
Sec6 (Secretory 6),DRSC06932,,15458,,3872,,inactive
CG17065,DRSC20544,,18528,,9792,,inactive
CG34225,DRSC05270,,16467,,13752,,inactive
CG31495,DRSC16762,,16096,,3718,,inactive
Tsr1 (Tsr1 ribosome assembly factor),DRSC11821,,3529,,690,,inactive
Ilp3 (Insulin-like peptide 3),DRSC10168,,9136,,3651,,inactive
Rrp4,DRSC04434,,15334,,3594,,inactive
CG2887,DRSC18235,,18162,,7800,,inactive
Hsp67Bc (Heat shock gene 67Bc),DRSC11193,,4816,,1824,,inactive
S-Lap7 (Sperm-Leucylaminopeptidase 7),DRSC06374,,5782,,1753,,inactive
Uch-L5 (Ubiquitin carboxy-terminal hydrolase L5),DRSC11314,,4970,,1608,,inactive
CG30428,DRSC04041,,19082,,7616,,inactive
CG8072,DRSC10960,,6438,,2192,,inactive
CG6429,DRSC06986,,4551,,2192,,inactive
RpL31 (Ribosomal protein L31),DRSC06716,,4352,11123,955,2976,inactive
Remo (Remoulade),DRSC19710,,16752,,12869,,inactive
LManI (Lysosomal alpha-mannosidase I),DRSC02838,,2595,6474,561,2964,inactive
mbl (muscleblind),DRSC05657,,18631,,11152,,inactive
mbl (muscleblind),DRSC06449,Wg reporter activity raised,16252,,1316,,active
mbl (muscleblind),DRSC07651,,4177,,1143,,inactive
ko (knockout),DRSC11893,,13049,,3610,,inactive
CG2841,DRSC17699,,3857,,1424,,inactive
CG2841,DRSC18824,,12035,,11346,,inactive
CG2841,DRSC22106,,7.33e5,8.08e5,3.27e5,3.23e5,inactive
Mst98Ca (Male-specific RNA 98Ca),DRSC16749,,3032,7738,1472,1533,inactive
AnxB9 (Annexin B9),DRSC14111,,1584,5668,1045,1740,inactive
nonA (no on or off transient A),DRSC20357,,16887,,9306,,inactive
CG12384,DRSC06145,,19395,7.03e5,6022,3.02e5,inactive
CG11816,DRSC19428,,15994,,7352,,inactive
CG2082,DRSC12125,,8832,,3336,,inactive
tkv + CR14033 + tRNA:Asp-GTC-2-1 + 1 more,DRSC00861,,22621,,10662,,inactive
mms4 (Methyl methanesulfonate sensitivity 4),DRSC06249,,2069,6448,661,3242,inactive
CG6154,DRSC15977,,20556,,26177,,inactive

Look-ups from the entries so far.
Under “firefly reporter light, replicate 1”, Tsr1 (Tsr1 ribosome assembly factor) [DRSC11821] shows 3529
Entry for ss (spineless) [DRSC17069] in “Renilla control light, replicate 1”: 3849
Under “Outcome”, Mst98Ca (Male-specific RNA 98Ca) [DRSC16749] reads inactive
Result of CG42340 [DRSC17458] in “Renilla control light, replicate 1”: 1347
Result for PlexA (Plexin A) [DRSC17220] in “Renilla control light, replicate 2”: 2037
Value for Ttc1 (Tetratricopeptide repeat domain 1) [DRSC15016] under “Outcome”: inactive
